Data: paper PMC4077737
No constants are given. Whether binding was seen depends on the method and setting. In cells and extracts the contact can be indirect. Some results given as binding are weak or reduced against the parent protein; the word gives no strength.

Amino acid sequences for entries named in this document (tags omitted). A change or cut given only in a name is not applied to a line headed by its entry.
UniProt P35222: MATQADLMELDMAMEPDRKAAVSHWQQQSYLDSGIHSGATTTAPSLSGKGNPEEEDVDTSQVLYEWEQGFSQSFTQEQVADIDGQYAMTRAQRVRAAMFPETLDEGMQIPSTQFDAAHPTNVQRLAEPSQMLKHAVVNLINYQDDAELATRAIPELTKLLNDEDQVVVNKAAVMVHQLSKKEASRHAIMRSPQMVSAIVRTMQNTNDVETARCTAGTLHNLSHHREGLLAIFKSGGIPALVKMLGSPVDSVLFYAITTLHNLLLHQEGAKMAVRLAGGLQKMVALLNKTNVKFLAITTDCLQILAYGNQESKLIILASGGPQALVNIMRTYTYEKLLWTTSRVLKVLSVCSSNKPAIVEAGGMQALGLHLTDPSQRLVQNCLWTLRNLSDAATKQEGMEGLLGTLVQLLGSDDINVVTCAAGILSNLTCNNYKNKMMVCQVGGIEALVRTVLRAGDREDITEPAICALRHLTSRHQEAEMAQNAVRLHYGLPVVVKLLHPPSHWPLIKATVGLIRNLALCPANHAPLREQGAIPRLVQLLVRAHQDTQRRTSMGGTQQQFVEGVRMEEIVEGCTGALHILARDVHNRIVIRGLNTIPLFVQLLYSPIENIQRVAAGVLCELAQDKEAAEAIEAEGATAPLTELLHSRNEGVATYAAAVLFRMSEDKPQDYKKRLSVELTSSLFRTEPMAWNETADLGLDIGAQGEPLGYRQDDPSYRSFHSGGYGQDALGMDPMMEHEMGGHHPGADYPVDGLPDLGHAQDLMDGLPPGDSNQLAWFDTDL
UniProt O14746: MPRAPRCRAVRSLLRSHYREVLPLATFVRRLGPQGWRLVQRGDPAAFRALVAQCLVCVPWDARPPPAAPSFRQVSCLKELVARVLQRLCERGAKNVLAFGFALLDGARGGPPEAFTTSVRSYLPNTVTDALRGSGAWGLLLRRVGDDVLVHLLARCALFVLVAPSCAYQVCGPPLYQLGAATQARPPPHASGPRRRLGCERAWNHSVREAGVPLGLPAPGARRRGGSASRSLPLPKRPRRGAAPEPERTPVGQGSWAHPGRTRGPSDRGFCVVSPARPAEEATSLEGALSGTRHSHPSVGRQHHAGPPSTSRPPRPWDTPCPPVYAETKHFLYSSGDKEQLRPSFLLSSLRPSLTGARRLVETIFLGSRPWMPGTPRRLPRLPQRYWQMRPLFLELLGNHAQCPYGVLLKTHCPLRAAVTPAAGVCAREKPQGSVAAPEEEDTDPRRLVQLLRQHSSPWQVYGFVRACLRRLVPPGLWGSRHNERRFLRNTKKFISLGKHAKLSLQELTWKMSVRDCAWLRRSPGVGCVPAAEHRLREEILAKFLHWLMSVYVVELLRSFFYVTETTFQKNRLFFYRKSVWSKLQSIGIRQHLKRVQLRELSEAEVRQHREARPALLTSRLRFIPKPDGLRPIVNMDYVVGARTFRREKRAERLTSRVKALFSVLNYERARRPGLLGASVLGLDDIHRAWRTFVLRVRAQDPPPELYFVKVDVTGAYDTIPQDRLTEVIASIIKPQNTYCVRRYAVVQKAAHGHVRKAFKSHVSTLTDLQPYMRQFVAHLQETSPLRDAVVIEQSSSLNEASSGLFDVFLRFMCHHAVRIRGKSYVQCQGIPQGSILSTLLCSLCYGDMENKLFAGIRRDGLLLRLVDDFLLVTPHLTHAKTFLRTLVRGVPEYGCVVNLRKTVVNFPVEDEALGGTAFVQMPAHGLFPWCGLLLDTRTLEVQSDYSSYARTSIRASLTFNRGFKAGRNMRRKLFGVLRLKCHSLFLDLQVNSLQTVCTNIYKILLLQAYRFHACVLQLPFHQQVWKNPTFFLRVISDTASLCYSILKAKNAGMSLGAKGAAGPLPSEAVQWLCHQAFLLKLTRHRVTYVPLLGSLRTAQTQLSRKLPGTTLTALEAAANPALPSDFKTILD
UniProt P51532: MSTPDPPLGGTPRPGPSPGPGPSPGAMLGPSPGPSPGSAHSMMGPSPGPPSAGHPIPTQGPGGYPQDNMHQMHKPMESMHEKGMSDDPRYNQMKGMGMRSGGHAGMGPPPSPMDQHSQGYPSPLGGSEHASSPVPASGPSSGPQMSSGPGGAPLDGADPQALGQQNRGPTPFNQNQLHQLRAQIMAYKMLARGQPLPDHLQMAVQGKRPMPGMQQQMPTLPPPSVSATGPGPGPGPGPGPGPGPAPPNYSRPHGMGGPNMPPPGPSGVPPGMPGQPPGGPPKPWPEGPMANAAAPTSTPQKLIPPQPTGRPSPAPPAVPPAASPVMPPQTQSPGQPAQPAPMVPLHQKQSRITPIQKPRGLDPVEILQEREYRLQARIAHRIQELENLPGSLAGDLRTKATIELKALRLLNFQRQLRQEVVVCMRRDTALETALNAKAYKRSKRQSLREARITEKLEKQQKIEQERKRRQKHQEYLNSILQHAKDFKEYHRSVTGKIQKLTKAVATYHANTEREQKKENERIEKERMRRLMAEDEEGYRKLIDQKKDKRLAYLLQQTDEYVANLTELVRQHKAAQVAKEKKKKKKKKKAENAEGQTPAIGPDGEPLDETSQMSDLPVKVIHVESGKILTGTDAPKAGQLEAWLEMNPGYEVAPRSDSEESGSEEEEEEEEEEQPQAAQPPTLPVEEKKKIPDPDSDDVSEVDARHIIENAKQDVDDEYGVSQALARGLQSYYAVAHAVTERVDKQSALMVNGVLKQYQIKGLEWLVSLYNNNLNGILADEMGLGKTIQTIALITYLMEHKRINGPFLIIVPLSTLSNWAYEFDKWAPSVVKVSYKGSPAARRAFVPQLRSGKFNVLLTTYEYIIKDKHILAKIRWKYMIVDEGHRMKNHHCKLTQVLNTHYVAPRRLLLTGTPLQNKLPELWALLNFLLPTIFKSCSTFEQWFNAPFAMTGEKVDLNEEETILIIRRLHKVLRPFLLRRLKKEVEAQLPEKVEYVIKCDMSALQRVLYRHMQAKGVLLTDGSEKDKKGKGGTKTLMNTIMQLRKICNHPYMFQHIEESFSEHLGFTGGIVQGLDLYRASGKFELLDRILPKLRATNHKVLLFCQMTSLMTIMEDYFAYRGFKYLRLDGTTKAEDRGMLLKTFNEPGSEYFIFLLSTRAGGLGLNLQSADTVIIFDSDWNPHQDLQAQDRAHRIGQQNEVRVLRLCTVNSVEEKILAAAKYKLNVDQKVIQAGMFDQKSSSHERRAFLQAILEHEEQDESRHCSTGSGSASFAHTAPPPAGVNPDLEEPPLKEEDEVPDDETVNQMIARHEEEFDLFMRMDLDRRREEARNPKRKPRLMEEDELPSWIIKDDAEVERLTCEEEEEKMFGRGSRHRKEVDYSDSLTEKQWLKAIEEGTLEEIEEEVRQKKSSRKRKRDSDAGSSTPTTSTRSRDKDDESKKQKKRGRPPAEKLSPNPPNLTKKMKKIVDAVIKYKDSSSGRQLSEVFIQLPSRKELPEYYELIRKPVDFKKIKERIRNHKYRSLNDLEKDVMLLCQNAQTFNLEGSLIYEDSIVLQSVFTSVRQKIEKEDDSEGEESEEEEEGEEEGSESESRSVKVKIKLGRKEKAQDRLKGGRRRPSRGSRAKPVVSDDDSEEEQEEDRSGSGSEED

Columns and labels:
Experiment in all cases: co-IP; HeLa cells transiently transfected with control vector, wtTERT or TERT variants; lysates immunoprecipitated with anti-TERT (Rocklands), anti-BRG-1 (Millipore) or anti-β-catenin (Abcam); immunoblot
[1] = target: β-catenin (human (endogenous in HeLa)) (UniProt P35222)
[2] = target: wild-type telomerase reverse transcriptase (wtTERT) (human) (UniProt O14746)
[3] = target: BRG-1 (human (endogenous in HeLa)) (UniProt P51532)
[4] = target: TERT variant G260D (human) (UniProt O14746)

binding [1] | binding [2] | binding [3] | binding [4] | Substance
binds | – | – | – | BRG-1 (from UniProt P51532 1-1647)
– | binds | binds | binds | β-catenin (from UniProt P35222 1-781)
binds | – | – | – | TERT variant G260D (from UniProt O14746 1-1132)
binds | – | – | – | wild-type telomerase reverse transcriptase (wtTERT) (from UniProt O14746 1-1132)
